In publication doi:10.1101/2020.03.04.975474 one finds binding data, which are given here for eight molecules.

Amino acid sequences for entries named in this document (tags omitted). Residues count along the entry.
UniProt P61011: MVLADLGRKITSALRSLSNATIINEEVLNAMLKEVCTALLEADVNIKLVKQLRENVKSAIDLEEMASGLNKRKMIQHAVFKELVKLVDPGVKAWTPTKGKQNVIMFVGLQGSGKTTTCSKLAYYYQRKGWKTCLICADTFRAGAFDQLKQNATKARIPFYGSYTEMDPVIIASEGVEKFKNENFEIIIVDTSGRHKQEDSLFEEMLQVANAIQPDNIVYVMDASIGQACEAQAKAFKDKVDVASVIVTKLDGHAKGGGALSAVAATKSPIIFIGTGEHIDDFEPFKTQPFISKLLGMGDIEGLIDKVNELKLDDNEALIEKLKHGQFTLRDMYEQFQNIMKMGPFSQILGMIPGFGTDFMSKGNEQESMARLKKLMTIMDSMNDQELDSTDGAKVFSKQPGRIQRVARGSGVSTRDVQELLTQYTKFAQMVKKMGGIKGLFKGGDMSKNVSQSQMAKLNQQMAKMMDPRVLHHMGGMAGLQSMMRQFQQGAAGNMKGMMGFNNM
UniProt P11021, residues 19-654: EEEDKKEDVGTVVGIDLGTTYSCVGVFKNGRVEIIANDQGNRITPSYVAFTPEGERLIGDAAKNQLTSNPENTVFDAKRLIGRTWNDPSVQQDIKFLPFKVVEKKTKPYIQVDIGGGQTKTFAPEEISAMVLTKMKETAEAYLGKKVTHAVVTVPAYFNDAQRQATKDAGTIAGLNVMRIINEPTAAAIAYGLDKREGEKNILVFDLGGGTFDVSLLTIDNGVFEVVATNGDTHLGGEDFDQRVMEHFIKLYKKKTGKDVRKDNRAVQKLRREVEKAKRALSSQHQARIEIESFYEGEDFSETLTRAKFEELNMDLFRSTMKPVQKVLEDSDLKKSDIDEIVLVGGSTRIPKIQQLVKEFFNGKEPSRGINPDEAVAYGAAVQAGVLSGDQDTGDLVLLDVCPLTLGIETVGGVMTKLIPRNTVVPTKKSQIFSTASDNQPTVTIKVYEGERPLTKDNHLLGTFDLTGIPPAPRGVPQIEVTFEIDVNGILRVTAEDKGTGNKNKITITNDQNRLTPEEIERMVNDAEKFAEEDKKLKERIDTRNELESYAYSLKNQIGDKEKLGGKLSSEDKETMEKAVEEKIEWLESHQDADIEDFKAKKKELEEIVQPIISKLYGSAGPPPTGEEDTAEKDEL
UniProt P14625, residues 22-803: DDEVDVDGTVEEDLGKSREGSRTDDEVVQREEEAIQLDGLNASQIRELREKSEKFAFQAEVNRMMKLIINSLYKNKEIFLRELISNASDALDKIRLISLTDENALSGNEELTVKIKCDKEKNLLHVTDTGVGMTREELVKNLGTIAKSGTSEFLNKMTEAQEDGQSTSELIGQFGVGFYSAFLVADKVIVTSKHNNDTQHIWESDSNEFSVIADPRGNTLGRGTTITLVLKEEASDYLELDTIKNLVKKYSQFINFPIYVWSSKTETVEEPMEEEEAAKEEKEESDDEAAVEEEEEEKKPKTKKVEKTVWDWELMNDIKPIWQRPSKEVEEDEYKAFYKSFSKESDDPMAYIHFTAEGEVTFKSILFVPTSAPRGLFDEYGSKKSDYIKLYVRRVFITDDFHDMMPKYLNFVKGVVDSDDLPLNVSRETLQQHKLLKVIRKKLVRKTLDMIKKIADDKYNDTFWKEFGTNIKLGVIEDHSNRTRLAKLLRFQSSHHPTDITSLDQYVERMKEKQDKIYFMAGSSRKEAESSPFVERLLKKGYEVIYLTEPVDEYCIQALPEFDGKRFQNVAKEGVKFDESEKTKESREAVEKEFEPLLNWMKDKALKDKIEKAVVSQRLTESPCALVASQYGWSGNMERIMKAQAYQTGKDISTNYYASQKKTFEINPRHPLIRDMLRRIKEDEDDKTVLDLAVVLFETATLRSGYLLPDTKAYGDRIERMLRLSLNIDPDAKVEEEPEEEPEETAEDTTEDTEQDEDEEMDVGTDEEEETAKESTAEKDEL
UniProt Q9Y520: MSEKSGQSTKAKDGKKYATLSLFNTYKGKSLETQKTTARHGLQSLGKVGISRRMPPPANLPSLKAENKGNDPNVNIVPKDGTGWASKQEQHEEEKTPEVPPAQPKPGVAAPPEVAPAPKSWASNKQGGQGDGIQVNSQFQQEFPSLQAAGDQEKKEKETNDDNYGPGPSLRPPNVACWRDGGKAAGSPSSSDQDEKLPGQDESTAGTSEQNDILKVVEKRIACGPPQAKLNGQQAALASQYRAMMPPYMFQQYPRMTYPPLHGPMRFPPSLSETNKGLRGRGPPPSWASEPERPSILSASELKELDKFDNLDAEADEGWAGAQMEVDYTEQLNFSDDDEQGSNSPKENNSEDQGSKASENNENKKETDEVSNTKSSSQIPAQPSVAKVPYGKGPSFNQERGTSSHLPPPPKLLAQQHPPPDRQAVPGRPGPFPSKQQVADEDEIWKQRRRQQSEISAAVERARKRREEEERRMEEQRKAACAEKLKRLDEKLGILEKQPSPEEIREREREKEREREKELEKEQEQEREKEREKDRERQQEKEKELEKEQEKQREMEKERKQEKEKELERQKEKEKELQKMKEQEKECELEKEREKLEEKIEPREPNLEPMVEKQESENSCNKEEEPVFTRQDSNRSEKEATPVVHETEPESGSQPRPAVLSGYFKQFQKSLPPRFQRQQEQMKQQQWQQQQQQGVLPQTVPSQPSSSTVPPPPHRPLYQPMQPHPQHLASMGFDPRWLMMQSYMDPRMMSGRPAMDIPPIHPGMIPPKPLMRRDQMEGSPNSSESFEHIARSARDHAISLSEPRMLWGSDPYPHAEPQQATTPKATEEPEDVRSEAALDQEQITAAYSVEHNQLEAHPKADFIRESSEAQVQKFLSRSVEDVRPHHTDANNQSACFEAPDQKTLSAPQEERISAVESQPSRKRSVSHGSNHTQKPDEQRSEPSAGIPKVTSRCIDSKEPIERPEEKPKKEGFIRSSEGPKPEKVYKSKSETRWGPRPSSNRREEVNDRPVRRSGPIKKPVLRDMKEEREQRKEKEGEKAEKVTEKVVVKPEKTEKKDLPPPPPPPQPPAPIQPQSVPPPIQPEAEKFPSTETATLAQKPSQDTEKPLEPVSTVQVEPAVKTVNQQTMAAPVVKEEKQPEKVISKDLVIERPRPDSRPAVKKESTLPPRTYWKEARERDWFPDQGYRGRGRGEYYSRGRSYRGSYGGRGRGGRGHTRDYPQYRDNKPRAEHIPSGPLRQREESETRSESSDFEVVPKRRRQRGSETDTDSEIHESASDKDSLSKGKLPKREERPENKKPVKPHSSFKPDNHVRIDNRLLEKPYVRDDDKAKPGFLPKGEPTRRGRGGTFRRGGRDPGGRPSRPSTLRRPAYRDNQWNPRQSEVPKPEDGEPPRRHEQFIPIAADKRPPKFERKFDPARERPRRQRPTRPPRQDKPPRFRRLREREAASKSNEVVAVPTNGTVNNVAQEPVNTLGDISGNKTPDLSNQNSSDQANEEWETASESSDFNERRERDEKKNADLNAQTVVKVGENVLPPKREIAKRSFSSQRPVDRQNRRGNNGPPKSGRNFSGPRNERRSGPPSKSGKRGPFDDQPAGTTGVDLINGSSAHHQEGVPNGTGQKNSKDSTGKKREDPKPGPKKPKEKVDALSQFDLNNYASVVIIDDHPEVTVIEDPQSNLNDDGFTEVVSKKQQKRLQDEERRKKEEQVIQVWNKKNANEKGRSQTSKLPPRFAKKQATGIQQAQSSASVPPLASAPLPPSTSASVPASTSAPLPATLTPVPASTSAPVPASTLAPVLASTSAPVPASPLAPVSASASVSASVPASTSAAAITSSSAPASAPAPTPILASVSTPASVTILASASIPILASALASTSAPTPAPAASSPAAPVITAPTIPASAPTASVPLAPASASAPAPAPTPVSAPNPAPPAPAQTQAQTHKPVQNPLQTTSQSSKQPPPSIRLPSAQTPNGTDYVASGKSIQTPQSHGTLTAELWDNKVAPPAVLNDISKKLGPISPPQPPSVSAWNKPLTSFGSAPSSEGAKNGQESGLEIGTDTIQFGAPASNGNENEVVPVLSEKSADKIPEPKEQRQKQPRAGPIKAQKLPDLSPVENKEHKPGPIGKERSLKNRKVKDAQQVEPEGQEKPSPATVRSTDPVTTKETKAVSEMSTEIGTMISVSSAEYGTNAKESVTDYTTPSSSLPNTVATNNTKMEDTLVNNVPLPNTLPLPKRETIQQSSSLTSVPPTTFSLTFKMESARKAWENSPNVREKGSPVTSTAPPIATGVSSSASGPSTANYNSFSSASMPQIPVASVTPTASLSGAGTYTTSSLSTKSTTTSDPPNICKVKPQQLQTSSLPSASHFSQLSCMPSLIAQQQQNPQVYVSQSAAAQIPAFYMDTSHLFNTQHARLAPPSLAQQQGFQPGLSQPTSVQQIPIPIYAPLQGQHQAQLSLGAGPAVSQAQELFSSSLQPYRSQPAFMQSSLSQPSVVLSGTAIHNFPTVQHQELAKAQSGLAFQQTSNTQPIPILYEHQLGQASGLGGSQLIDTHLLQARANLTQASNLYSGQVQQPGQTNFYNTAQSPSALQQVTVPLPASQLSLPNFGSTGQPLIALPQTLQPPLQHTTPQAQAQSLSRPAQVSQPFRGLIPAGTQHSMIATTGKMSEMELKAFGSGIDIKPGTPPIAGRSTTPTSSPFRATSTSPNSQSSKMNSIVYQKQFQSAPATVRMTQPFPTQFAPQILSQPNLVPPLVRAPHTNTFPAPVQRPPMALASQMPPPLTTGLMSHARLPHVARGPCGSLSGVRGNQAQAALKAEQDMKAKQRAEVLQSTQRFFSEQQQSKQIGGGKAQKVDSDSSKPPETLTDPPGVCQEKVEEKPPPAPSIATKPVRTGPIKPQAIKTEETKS

Test [1] deals with T1, LRRC59 (native, immunoprecipitated from Caco-2 cells) (human (endogenous in Caco-2)) (UniProt Q96AG4).
T1 sequence: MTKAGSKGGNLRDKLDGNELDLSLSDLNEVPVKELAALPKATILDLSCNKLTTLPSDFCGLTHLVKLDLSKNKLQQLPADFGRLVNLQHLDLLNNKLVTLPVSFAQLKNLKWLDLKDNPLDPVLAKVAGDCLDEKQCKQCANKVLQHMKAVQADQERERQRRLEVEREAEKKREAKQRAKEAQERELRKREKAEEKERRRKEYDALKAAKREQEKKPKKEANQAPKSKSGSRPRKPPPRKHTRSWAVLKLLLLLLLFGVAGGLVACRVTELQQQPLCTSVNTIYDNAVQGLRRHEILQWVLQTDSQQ
As to the kind of experiment: affinity purification with mass spectrometry.

Another test addresses T2, LRRC59-BirA reporter (UniProt Q96AG4).
T2 sequence: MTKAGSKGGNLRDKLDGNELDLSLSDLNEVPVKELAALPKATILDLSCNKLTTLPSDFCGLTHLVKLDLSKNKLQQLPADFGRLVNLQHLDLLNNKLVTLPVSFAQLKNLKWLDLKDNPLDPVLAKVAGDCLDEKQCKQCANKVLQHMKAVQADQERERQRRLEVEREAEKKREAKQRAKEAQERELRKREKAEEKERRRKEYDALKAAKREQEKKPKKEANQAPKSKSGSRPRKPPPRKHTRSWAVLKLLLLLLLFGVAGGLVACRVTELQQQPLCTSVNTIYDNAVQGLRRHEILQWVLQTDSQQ
As to the kind of experiment: proximity labelling.

Test [2] addresses T3, SEC62-BirA reporter (UniProt Q99442).
T3 sequence: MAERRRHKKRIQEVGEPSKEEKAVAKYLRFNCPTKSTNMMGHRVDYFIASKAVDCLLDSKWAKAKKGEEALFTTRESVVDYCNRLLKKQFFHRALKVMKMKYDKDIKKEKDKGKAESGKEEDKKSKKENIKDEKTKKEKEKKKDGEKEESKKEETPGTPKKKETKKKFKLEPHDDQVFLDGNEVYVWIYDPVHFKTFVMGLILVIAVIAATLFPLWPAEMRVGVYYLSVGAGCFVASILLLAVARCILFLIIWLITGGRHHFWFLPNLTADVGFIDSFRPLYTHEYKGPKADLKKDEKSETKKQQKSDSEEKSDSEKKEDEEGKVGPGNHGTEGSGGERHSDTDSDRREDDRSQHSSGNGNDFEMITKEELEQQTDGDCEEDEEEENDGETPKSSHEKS
Description: proximity labelling.

For another test, the target named is T4, RPN1-BirA reporter (UniProt P04843).
T4 sequence: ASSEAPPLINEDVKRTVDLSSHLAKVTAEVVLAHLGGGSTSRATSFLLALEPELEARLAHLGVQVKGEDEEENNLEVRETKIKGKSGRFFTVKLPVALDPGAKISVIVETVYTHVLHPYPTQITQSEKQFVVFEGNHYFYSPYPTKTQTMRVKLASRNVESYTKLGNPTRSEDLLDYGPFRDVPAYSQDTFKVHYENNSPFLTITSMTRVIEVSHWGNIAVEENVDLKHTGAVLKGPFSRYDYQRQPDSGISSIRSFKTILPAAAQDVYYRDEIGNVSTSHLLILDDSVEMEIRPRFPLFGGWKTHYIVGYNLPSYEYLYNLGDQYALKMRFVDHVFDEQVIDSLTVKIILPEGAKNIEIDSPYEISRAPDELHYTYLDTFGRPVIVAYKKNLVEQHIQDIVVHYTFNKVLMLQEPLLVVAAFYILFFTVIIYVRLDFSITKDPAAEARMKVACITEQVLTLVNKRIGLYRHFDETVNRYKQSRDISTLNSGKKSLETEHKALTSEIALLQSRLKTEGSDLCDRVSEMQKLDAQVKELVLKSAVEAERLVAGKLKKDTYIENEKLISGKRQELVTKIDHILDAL
As to the kind of experiment: proximity labelling.

In test [3] the target is T3, SEC62-BirA reporter. As to the kind of experiment: proximity labelling. The source holds these as a separate data set.

Where two headings read alike, the source gives them in different places. No constants are given. Whether binding was seen depends on the method and setting. In cells and extracts the contact can be indirect. Here binding means that the protein was enriched with, or labelled near, the bait; the list need not be complete.

As to SRP54 (from UniProt P61011 1-504), the binding entry (in test [1]; in the test with LRRC59-BirA reporter) was “binds” throughout.

As for BiP (from UniProt P11021 19-654), in the test with SEC62-BirA reporter [2], the binding entry is “binds”.

Take “HSP90B1/GRP94 (from UniProt P14625 22-803)”: the binding result in the test with SEC62-BirA reporter [2] is “binds”.

As to PRRC2C (from UniProt Q9Y520 1-2896), the binding entry (in test [1]; in the test with LRRC59-BirA reporter) was “binds” in each case.

B1: SSR1/TRAPα (protein, UniProt P43307 19-286)
chain: VLFRGGPRGLLAVAQDLTEDEETVEDSIIEDEDDEAEVEEDEPTDLVEDKEEEDVSGEPEASPSADTTILFVKGEDFPANNIVKFLVGFTNKGTEDFIVESLDASFRYPQDYQFYIQNFTALPLNTVVPPQRQATFEYSFIPAEPMGGRPFGLVINLNYKDLNGNVFQDAVFNQTVTVIEREDGLDGETIFMYMFLAGLGLLVIVGLHQLLESRKRKRPIQKVEMGTSSQNDVDMSWIPQETLNQINKASPRRLPRKRAQKRSVGSDE
Turning to B1, the binding entry with RPN1-BirA reporter is given as “binds”.

B2: SSR3/TRAPγ (protein, UniProt Q9UNL2 1-185)
chain: MAPKGSSKQQSEEDLLLQDFSRNLSAKSSALFFGNAFIVSAIPIWLYWRIWHMDLIQSAVLYSVMTLVSTYLVAFAYKNVKFVLKHKVAQKREDAVSKEVTRKLSEADNRKMSRKEKDERILWKKNEVADYEATTFSIFYNNTLFLVVVIVASFFILKNFNPTVNYILSISASSGLIALLSTGSK
For B2, the binding entry with RPN1-BirA reporter is “binds”.

B3: PRDX4 (protein, UniProt Q13162 38-271)
chain: WETEERPRTREEECHFYAGGQVYPGEASRVSVADHSLHLSKAKISKPAPYWEGTAVIDGEFKELKLTDYRGKYLVFFFYPLDFTFVCPTEIIAFGDRLEEFRSINTEVVACSVDSQFTHLAWINTPRRQGGLGPIRIPLLSDLTHQISKDYGVYLEDSGHTLRGLFIIDDKGILRQITLNDLPVGRSVDETLRLVQAFQYTDKHGEVCPAGWKPGSETIIPDPAGKLKYFDKLN
In the case of B3, the binding result in the test with SEC62-BirA reporter [3] is recorded as “binds”.

B4: STT3B (protein, UniProt Q8TCJ2 1-826)
chain: MAEPSAPESKHKSSLNSSPWSGLMALGNSRHGHHGPGAQCAHKAAGGAAPPKPAPAGLSGGLSQPAGWQSLLSFTILFLAWLAGFSSRLFAVIRFESIIHEFDPWFNYRSTHHLASHGFYEFLNWFDERAWYPLGRIVGGTVYPGLMITAGLIHWILNTLNITVHIRDVCVFLAPTFSGLTSISTFLLTRELWNQGAGLLAACFIAIVPGYISRSVAGSFDNEGIAIFALQFTYYLWVKSVKTGSVFWTMCCCLSYFYMVSAWGGYVFIINLIPLHVFVLLLMQRYSKRVYIAYSTFYIVGLILSMQIPFVGFQPIRTSEHMAAAGVFALLQAYAFLQYLRDRLTKQEFQTLFFLGVSLAAGAVFLSVIYLTYTGYIAPWSGRFYSLWDTGYAKIHIPIIASVSEHQPTTWVSFFFDLHILVCTFPAGLWFCIKNINDERVFVALYAISAVYFAGVMVRLMLTLTPVVCMLSAIAFSNVFEHYLGDDMKRENPPVEDSSDEDDKRNQGNLYDKAGKVRKHATEQEKTEEGLGPNIKSIVTMLMLMLLMMFAVHCTWVTSNAYSSPSVVLASYNHDGTRNILDDFREAYFWLRQNTDEHARVMSWWDYGYQIAGMANRTTLVDNNTWNNSHIALVGKAMSSNETAAYKIMRTLDVDYVLVIFGGVIGYSGDDINKFLWMVRIAEGEHPKDIRESDYFTPQGEFRVDKAGSPTLLNCLMYKMSYYRFGEMQLDFRTPPGFDRTRNAEIGNKDIKFKHLEEAFTSEHWLVRIYKVKAPDNRETLDHKPRVTNIFPKQKYLSKKTTKRKRGYIKNKLVFKKGKKISKKTV
With B4, the binding result with RPN1-BirA reporter was “binds”.
